According to US20240075152A1:
These are yes or no findings as the source states them, for the method shown. Some binding calls cover weakened binding; strength is not graded here. Tags and fused reporters may be left off the sequences shown.

Tests used:
[1] = target: GCN4-p2L variant (trimeric variant of GCN4 peptide with N-terminal NTA and C-terminal His2), assembled into hexagonal 3D crystals with Zn2+; assay: inclusion during crystal growth, confocal fluorescence
[2] = target: GCN4-p2L variant (trimeric variant of GCN4 peptide with N-terminal NTA and C-terminal His2), assembled into hexagonal 3D crystals with Zn2+; assay: preformed crystals treated with NiCl2, confocal fluorescence
[3] = target: GCN4-p2L variant (trimeric variant of GCN4 peptide with N-terminal NTA and C-terminal His2), assembled into hexagonal 3D crystals with Zn2+; assay: both strategies combined, confocal fluorescence

binding [1]: binds
binding [2]: binds
binding [3]: binds
Binder: HHHHHH (fluorescein label (position not given)) [fluorescein-labeled His6 (Fl-His6)]
